According to patent publication US20060034823A1, “Method of production and use of crotoxin as an analgesic” (priority 2004, published 2006):

Tests used:
[1] = tested on: acetic acid writhing response in mice; assay type: in vivo, Kunming mice
[2] = tested on: pain response in mice induced by Hot Plate; assay type: in vivo, Kunming mice; conditions: atropine 0.5 mg/kg (im); crotoxin 44.3 μg/kg

`CN1[C@@H]2CC[C@H]1C[C@@H](OC(=O)C(CO)c1ccccc1)C2` (stereo partly shown) [Atropine, atropine] was tested, and the “effect of atropine alone on the pain threshold” value ([1]; atropine 10 mg/kg (ip)) was “no significant effect”, the “antagonism of the analgesic effects of crotoxin” value ([1]; atropine 10 mg/kg (ip), crotoxin 44.3 μg/kg) was “failed to antagonize” and the “The number of writhings” value ([1]; crotoxin 44.3 μg·kg−1, atropine 10 mg·kg−1 or NS (i.p.) 1.5 hours after crotoxin, determined 1.5 hours after atropine) was 18.60 ± 9.61 times/10 min. The “antagonism of the analgesic effects of crotoxin” value [2] was “failed to antagonize”.
